For at least one compound, name, drawing or mass did not settle the structure.
Test system: TORC1
Assay: DNA microarray measurement of TORC1 pathway output (gene expression) with and without rapamycin
Type: cell-based, S. cerevisiae
Conditions: for effect on gene expression: 200 ng/ml rapamycin, 20 minutes
Procedure: Previous studies of TOR pathway signaling in stress have been limited to measuring phosphorylation of a single substrate, Sch9. As a result it was not clear whether stress signals inhibit TORC1 activity directly or simply act on one or two TORC1 targets proteins. To help distinguish between these possibilities, the complete output of TORC1 pathway in osmotic stress was measured using DNA microarrays. To do this, the cellular response was monitored with and without the potent TORC1 inhibitor rapamycin in 0.4M KCl and three control conditions: amino acid starvation, nitrogen starvation and log growth conditions.
In osmotic stress, Hog1/p38, the terminal kinase in the HOG pathway, is known to regulate many aspects of the stress response including transcription, chromatin remodeling, cell cycle check-points, and ion and glycerol channel regulation. Therefore, it was tested whether Hog1/p38 plays a role transmitting stress signals to TORC1 by comparing expression in hog1Δ and wild-type cells both with and without rapamycin (e.g., with and without TORC1 activity) using DNA microarrays. […] This repression is manifest as approximately 3-fold less ribosome gene repression in hog1Δ than wild-type cells in 0.4M KCl (FIG. 2c, column 5).
(a) DNA microarray data comparing the gene expression program activated by KCl stress and the TORC1 inhibitor rapamycin. The rapamycin experiments compare the mRNA levels from cells grown in the conditions indicated on the diagram prior to, and 20 minutes after, treatment with 200 ng/ml rapamycin (aa=amino acid, glu=glucose). The KCl stress experiment compares the mRNA levels from cells in log growth conditions (YEPD, OD=0.6) prior to, and 20 min after, treatment with 0.4M KCl. In all of these experiments cDNA from cells treated with a stimuli are labeled with Cy5 while untreated cells are labeled with Cy3. Thus, genes activated by KCl or rapamycin are red on the heat map while genes repressed in these stimuli are green. […] The major ontology groups for each set are listed, along with their statistical significance. Experiments were performed using Agilent 60-mer oligonucleotide arrays, and were repeated at least two-times. (b) Sch9 is dephosphorylated in KCl stress. A phosphorylation-induced shift in the electrophoretic mobility of Sch9-3HA was measured by performing a western blot to a SDS-PAGE gel loaded with extract from cells collected before and after treatment with 0.4M KCl, using an anti-HA antibody. […] The experiment described in (b) was carried out in triplicate in wild-type and hog1A strains and the fraction of protein in the phosphorylated state was quantified using densitometry. […]

CO[C@H]1C[C@@H]2CC[C@@H](C)[C@@](O)(O2)C(=O)C(=O)N2CCCC[C@H]2C(=O)O[C@H]([C@H](C)C[C@@H]2CC[C@@H](O)[C@H](OC)C2)CC(=O)[C@H](C)/C=C(\C)[C@@H](O)[C@@H](OC)C(=O)[C@H](C)C[C@H](C)/C=C/C=C/C=C/1C [rapamycin]
effect on gene expression (KCl stress (0.4M KCl) and starvation conditions): almost no influence on gene expression
effect on carbonic acid, amino acid and nitrogen metabolic pathways (only rapamycin, not salt stress): triggers activation
effect on ribosome genes (rapamycin compared with salt stress): down-regulation of ribosome genes
effect on gene expression (rapidly growing cells (log growth, TORC1 active)): widespread and dramatic reprogramming of gene expression

Reference: US20220168328A1, “METHODS AND COMPOSITIONS FOR TREATING EUKARYOTIC INFECTIONS VIA ALTERING AGGREGATION DYNAMICS OF RAPTOR/KOG1” (ARIZONA BOARD OF REGENTS ON BEHALF OF THE UNIVERSITY OF …, priority 2014, published 2022)
